# Measured values: article PMC8870177
# By UniProt entry, the sequences of proteins in these tests, tags left out. Residues count along the entry.
# UniProt Q13153, residues 67-150: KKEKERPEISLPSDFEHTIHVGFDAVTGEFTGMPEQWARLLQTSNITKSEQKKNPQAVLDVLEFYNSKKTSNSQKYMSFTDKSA
# UniProt P60766: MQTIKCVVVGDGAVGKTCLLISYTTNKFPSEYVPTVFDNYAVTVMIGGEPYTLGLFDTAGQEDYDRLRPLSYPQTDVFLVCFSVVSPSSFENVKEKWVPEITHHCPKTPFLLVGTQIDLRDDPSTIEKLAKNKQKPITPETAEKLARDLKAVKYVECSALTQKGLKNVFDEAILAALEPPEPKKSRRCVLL
# These are yes or no findings as the source states them, for the method shown. Binding seen in cells or lysates may run through a third protein. Some entries that bind do so weakly or less than the wild type.
# Molecular target: GST-fused p21-binding domain (PBD) of human PAK1 (aa 67-150) (human) (UniProt Q13153)
# Test: pull-down; GST-fused PBD (5 ug) on Glutathione Sepharose 4B beads incubated 30 min at 4 C with lysates of serum-starved transfected COS7 cells (Plek2-WT or Plek2-RW, with or without Gbeta1 and Ggamma2 co-expressed); 50 mM Tris-HCl pH 7.5, 150 mM NaCl, 5 mM MgCl2, 0.1% SDS, 1% Nonidet P-40, 0.5% deoxycholate; bound proteins by Western blot with anti-Myc; only the target purified
substance,measurement,value
Myc-tagged mouse Cdc42 (from UniProt P60766 1-191),binding,binds
